# Data: the supplement of paper PMC8551327
# Structures can show the parent of a compound that is named as a salt. The list shows a part of the results. Cut-off read from the data, not from the text of the source: active = 1.25 or more and inactive = the rest. Single values are uncertain, as repeats are few or missing.
# System: Kcc2-LUC knock-in mouse primary cortical neurons (Kcc2 promoter reporter)
# Experiment: Kcc2 promoter-driven luciferase activity relative to vehicle control (fold of vehicle (ratio)); higher = stronger Kcc2 promoter activation (Kcc2 expression enhancer)
# Conditions: 100 nM; 48 h
row,SMILES,Kcc2 promoter-driven luciferase activity
1,CC(CN(C)C)C(=O)c1ccccc1C(=O)O (stereo not drawn),active: 1.31
2,CC(C)CCCCCCCCCCCCC(=O)NCC(=O)NC1C(C)OC(Nc2ncnc3nc[nH]c23)C(O)C1O (stereo not drawn),inactive: 0.84
3,"COC1=CC(=O)c2c(ccc3ncnc(N)c23)C1=O [1-amino-8-methoxybenzo[f]quinazoline-7,10-dione]",inactive: 0.89
4,O=C1C=C(Nc2ccccc2C(=O)CC(=O)C(=O)Nc2ccc(Cl)c(Cl)c2)c2ccccc2C1=O,inactive: 1.11
5,COc1cc2c3c(n(C)c(=O)c2cc1OC)-c1cc2c(cc1C3=O)OCO2,inactive: 1.11
6,COc1cc(Cc2nccc3cc(OC)c(OC)cc23)c(C(C)=O)cc1OC [Pseudocoralyne; Acetopapaverine;],inactive: 0.62
7,CC1(C)C[C@]23[C@@H]4COC(=O)[C@H]2CC[C@H]1[C@@H]3CC4=O [Quadrone],inactive: 0.42
8,"Cc1ccc2c(c1)C1(C)OC(C=CC1=O)O2 (stereo not drawn) [2, 6,8-Dimethyl-]",inactive: 1.03
9,COc1cc([C@@H]2c3cc4c(cc3[C@H](O[C@@H]3O[C@@H]5COC(c6ccccc6)O[C@H]5[C@H](O)[C@H]3O)[C@H]3COC(=O)[C@H]23)OCO4)cc(OC)c1OC (stereo partly drawn) [Proresidor],active: 1.29
10,COc1ccc(/C=C/c2cc(OC)c(OC)c(OC)c2)cc1OP(=O)(O)O,inactive: 0.591
11,"Cc1ccccc1NC(=O)C(=O)C(C#N)c1ccccc1C (stereo not drawn) [3-Cyano-N,3-bis(2-methylphenyl)-2-oxopropanamide]",inactive: 0.93
12,Nc1ccc2cc3ccc(N)cc3nc2c1 [Proflavine monohydrochloride],inactive: 0.8
13,Nc1ccc2nc3ccc(=O)cc-3n(-c3ccccc3)c2c1 [8-Amino-10-phenylphenazin-2-one],inactive: 0.97

# Some of the entries so far, with bars between the fields.
row | SMILES | Kcc2 promoter-driven luciferase activity
1 | CC(CN(C)C)C(=O)c1ccccc1C(=O)O (stereo not drawn) | active: 1.31
6 | COc1cc(Cc2nccc3cc(OC)c(OC)cc23)c(C(C)=O)cc1OC [Pseudocoralyne; Acetopapaverine;] | inactive: 0.62
